From PubChem BioAssay AID743381 (National Center for Advancing Translational Sciences (NCATS), 2014)
Inconclusive means that the source gave no clear call. Such entries were picked first, then a sample of the others. Where the call is inconclusive, the potency comes from a doubtful curve fit. Calls of active or inactive are those of the source. The call rests on the fitted dose curve; in most records, active means well fitted inhibition curve with a large enough effect; inconclusive means small, poorly fitted or top-dose-only effect; inactive means flat fitted curve, though single readings scatter.

Sequences of proteins named here, by UniProt entry; tags and fusion partners are left off. A change or cut given only in a name is not applied to a line headed by its entry.
UniProt P48426: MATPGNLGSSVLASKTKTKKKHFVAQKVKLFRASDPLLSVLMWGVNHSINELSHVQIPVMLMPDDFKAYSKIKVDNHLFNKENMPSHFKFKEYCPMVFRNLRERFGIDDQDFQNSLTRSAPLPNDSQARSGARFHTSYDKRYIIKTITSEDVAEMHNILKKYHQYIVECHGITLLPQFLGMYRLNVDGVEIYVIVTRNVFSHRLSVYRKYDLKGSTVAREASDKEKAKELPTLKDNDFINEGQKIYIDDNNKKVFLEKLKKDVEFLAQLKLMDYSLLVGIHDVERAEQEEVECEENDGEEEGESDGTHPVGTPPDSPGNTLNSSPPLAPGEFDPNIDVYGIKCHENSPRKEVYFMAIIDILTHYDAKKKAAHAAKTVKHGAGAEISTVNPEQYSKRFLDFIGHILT

These compounds were tested against Phosphatidylinositol 5-phosphate 4-kinase type-2 alpha (Homo sapiens) (UniProt P48426) (assay: qHTS for Inhibitors of PI5P4K: PI5P4K-alpha Confirmatory Assay for Probe SAR). Conditions: Purified PI5P4Kalpha, ADP-Glo luminescence, 60 min; series mostly up to 76.9 µM.
Text: In addition to finding PI5P, we discovered the type II phosphatidylinositol 5-phosphate 4-kinase (PI5P4K) family (alpha, beta, gamma isoforms) that catalyze the conversion of PI5P to PI(4,5)P2. Alternatively, PI(4,5)P2 can also be synthesized through phosphatidylinositol-4-phosphate (PI4P) by the type I phosphatidylinositol 4-phosphate 5-kinases (PI4P5K). These PI5P4K enzymes therefore represent one way by which cells can regulate endogenous PI5P levels and play important roles in insulin signaling and in stress responses. […] A qHTS PI5P4Kalpha ADP-Glo assay was developed to identify specific modulators of human PI5P4K, phosphatidylinositol-5-phosphate 4-kinase (Type II PIPK). This assay was screened against the MLSMR containing ~400,000 small molecules (PubChem AID 652105). The same assay was used to validate subsequent Medicinal Chemistry efforts on the active compounds and its analogs. Inhibition of the enzyme activity (signal decrease) is the desired outcome for this assay. Davis et al., PLoS One. 2013; 8(1):e54127. NIH Chemical Genomics Center [NCGC] NIH Molecular Libraries Probe Centers Network [MLPCN] MLPCN Grant: MH096575 Assay Submitter (PI): Atsuo Sasaki, Beth Israel Deaconess Medical Center
Two microliter of PI5P4Kalpha/substrate buffer (columns 1-2, 5-48) was dispensed into Greiner white solid bottom 1536-well assay plates; column 3 received only PI5P4Kalpha buffer as no substrate control; column 4 receives only substrate buffer as no PI5P4Kalpha controls. Final assay buffer consists of 0.038 M HEPES pH 7.4, 0.28 mM EGTA, 0.1 % CHAPS, and 5% DMSO (final concentration). Compounds were then transferred via Kalypsys pin tool equipped with 1536-pin array. Following addition of compound, 1 uL of ATP (5 uM final concentration) was added to initiate the reaction. ATP was diluted in an assay buffer consisting of 0.02 M HEPES pH 7.4, 60 mM MgCl2, 15 uM ATP, and 0.1% CHAPS. The plates were then incubated at room temperature for 60 minutes. ADP-Glo reagent 1 was added and plates incubated for 45 minutes. ADP-Glo reagent 2 was added and the plates were incubated for 30 minutes. The plates were transferred to a ViewLux high-throughput CCD imager (PerkinElmer) wherein single end-point measurements of luminescence were acquired using a clear filter.
In the case of `O=C1Nc2ccccc2/C1=C\c1ccc(C(=O)O)cc1`, the Potency is reported as inconclusive: 19.4 µM [inhibitor, partial curve].
In the case of `O=C1Cc2cc(C(=O)c3ccco3)ccc2N1`, the Potency is reported as inconclusive: 24.4 µM [inhibitor, partial curve].
In the case of `O=C1Nc2cccc(Cl)c2/C1=C\c1cc(Cl)c(O)c(Cl)c1`, the Potency is reported as active: 3.07 µM.
For `O=C1Nc2ccccc2C1Cc1cc(Cl)c(O)c(Cl)c1` (stereo unspecified), the Potency was inconclusive: 30.7 µM [inhibitor, partial curve].
In the case of `O=C1Nc2ccccc2C12CC2c1cc(Cl)c(O)c(Cl)c1` (stereo unspecified), the Potency is reported as inconclusive: 27.4 µM [inhibitor, partial curve].
In the case of `O=C1Nc2ccccc2/C1=C/c1ccc[nH]1`, the Potency is reported as “inactive”.
